From patent US6620844B2, “Method for reducing blood insulin levels by reducing in vivo cathepsin L activity” (NewMillennium Pharmaceutical, Inc., priority 2001, dated 2003)
Some entries share one result that the patent states for a list of compounds. For at least one compound, name, drawing or mass did not settle the structure.

System: human preadipocytes
Test: Human preadipocyte adipogenesis, oil-red staining
Format: cell-based
Settings: 1 μM
Protocol: FIG. 6. Oil-red staining of human preadipocytes and adipocytes.
Human preadipocytes were initially cultured in MSCGM medium (BioWhitaker) at 37° C. and 5% CO2 for 7 to 12 days with 3-4 changes of media till complete confluence. Non-induced cells were kept in adipogenesis maintenance media containing 0.01 mg/ml of insulin, 0.05 units/ml of penicillin, 0.05 μg/ml of streptomycin, and 10% fetal bovine serum. To induce adipogenesis, complete confluent cells were cultured in adipogenesis induction medium containing 1 μM dexamethasone, 0.2 mM indomethacin, 0.01 mg/ml insulin, 0.5 mM 3-isobutyl-1-methyl-xanthine, 0.05 units/ml of penicillin, 0.05 μg/ml of streptomycin, and 10% fetal bovine serum in the presence and absence of protease inhibitors for 3 days followed by three days of culture in maintenance media. After three cycles of induction and maintenance, cells were cultured in maintenance media for additional 7 days with two changes of fresh media.
This hypothesis is further confirmed by oil-red staining of CLIK 148 or 195 treated preadipocytes (FIG. 6). In addition, inhibition of adiogenesis by these two inhibitors is dose dependent. Less than 50% of adipogenesis was blocked by 1 μM of such inhibitors. […] In contrast, 1 μM of CLIK 060, 1 or 10 μM of CA 074 had no effect on adipogenesis (data not shown). […]

## CN(C)C(=O)[C@H](Cc1ccccc1)NC(=O)[C@H]1O[C@@H]1C(=O)NCCc1ccccn1 (relative stereo) [CLIK 148, L-(+)-(2S, 3S)-N-[2-(2′-pyridinyl)-1-ethyl]-Na-amino-(L-phenylalaninedimethylamide)-trans-epoxysuccinamide]
  adipogenesis blocked: Less than 50%

## CN(C)C(=O)[C@H](Cc1ccccc1)NC(=O)[C@H]1O[C@@H]1C(=O)N[C@@H](Cc1ccccc1)C(=O)N(C)C (relative stereo) [CLIK 195, L-(+)-(2S, 3S)-Bis-(Na-amino-L-phenylalaninedimethylamide)-trans-epoxysuccinamide]
  adipogenesis blocked: Less than 50%
